The results in this text go back to PMC4231161.

No constants are given. Whether binding was seen depends on the method and setting. In cells and extracts the contact can be indirect. A result given as binding can be weak or reduced; the word gives no strength. Sequences can lack the tags named with a protein.

Assay [1] concerns the target T1, KI-GAP45Ty (GAP45 Ty-tagged at the endogenous locus) (Toxoplasma gondii) (UniProt Q7Z289).
T1 sequence: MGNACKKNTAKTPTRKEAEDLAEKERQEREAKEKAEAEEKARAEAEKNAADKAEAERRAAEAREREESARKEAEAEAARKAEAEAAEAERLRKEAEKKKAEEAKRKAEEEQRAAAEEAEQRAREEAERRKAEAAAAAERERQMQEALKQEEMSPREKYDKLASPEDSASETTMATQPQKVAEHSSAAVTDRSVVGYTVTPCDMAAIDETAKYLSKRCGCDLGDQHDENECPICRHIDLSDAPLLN
Put plainly: co-IP; [35S]-methionine/cysteine labelled tachyzoites lysed in CoIP buffer (1% Triton X-100, 50 mM Tris-HCl pH 8, 150 mM NaCl); tagged bait precipitated with monoclonal anti-Ty or anti-Myc and Protein A-Sepharose, 4 C; eluted proteins seen by autoradiography; also in MyoC-KO background and in GAP45-iKO +/- ATc.

The target of assay [2] is T2, GAP45Ty (second copy of GAP45 with a Ty tag) (Toxoplasma gondii) (UniProt Q7Z289).
T2 sequence: T1 sequence
The description is as above.

Regarding myosin C (MyoC), in assay [1], the binding result is listed as “no binding”. Regarding myosin light chain 1 (MLC1), the binding entry in assay [1] and in assay [2] was “binds” throughout.
